This is an account of results in publication doi:10.64898/2025.12.12.694012.

Amino acid sequences for entries named in this document (tags omitted).
UniProt Q9BUI4: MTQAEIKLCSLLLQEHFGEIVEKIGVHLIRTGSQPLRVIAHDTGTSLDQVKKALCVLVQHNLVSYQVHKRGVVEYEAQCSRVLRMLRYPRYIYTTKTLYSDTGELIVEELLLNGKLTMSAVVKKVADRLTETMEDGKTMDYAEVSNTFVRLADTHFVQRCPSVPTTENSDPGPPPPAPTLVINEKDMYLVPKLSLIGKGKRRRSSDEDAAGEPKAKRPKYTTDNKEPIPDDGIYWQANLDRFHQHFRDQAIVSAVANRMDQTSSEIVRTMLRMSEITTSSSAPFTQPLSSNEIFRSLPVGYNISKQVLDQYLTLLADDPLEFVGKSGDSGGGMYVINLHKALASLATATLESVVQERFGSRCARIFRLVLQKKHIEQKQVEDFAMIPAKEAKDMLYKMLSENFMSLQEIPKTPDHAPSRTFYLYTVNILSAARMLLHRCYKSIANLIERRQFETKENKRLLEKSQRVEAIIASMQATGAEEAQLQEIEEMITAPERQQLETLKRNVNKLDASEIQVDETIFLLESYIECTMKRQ
UniProt O15318: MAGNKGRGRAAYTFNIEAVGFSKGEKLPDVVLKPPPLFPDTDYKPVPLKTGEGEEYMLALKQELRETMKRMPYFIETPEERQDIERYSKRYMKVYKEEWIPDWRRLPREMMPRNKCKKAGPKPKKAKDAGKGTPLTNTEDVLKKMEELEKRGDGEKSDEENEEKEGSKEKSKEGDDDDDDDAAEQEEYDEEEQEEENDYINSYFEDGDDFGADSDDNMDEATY
UniProt Q9BT43: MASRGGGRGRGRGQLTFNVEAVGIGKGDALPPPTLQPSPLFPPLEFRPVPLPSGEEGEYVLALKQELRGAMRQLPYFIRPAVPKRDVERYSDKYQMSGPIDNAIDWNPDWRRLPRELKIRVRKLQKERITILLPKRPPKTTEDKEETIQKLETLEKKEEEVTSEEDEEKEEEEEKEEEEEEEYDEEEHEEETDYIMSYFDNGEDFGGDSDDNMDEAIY
UniProt P37198: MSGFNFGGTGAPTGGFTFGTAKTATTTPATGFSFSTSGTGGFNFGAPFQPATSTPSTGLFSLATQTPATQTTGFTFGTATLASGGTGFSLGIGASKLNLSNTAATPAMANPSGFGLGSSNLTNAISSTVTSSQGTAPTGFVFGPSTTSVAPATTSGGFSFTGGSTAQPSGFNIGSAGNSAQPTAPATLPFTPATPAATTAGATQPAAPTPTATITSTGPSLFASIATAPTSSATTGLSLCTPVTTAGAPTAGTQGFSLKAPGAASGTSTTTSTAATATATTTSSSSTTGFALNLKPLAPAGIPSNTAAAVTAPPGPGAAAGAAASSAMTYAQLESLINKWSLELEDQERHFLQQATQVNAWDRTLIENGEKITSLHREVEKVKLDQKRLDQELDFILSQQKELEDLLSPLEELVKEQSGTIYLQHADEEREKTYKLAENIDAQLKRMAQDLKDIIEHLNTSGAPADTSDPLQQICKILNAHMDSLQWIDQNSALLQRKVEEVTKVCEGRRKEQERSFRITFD
UniProt P12270: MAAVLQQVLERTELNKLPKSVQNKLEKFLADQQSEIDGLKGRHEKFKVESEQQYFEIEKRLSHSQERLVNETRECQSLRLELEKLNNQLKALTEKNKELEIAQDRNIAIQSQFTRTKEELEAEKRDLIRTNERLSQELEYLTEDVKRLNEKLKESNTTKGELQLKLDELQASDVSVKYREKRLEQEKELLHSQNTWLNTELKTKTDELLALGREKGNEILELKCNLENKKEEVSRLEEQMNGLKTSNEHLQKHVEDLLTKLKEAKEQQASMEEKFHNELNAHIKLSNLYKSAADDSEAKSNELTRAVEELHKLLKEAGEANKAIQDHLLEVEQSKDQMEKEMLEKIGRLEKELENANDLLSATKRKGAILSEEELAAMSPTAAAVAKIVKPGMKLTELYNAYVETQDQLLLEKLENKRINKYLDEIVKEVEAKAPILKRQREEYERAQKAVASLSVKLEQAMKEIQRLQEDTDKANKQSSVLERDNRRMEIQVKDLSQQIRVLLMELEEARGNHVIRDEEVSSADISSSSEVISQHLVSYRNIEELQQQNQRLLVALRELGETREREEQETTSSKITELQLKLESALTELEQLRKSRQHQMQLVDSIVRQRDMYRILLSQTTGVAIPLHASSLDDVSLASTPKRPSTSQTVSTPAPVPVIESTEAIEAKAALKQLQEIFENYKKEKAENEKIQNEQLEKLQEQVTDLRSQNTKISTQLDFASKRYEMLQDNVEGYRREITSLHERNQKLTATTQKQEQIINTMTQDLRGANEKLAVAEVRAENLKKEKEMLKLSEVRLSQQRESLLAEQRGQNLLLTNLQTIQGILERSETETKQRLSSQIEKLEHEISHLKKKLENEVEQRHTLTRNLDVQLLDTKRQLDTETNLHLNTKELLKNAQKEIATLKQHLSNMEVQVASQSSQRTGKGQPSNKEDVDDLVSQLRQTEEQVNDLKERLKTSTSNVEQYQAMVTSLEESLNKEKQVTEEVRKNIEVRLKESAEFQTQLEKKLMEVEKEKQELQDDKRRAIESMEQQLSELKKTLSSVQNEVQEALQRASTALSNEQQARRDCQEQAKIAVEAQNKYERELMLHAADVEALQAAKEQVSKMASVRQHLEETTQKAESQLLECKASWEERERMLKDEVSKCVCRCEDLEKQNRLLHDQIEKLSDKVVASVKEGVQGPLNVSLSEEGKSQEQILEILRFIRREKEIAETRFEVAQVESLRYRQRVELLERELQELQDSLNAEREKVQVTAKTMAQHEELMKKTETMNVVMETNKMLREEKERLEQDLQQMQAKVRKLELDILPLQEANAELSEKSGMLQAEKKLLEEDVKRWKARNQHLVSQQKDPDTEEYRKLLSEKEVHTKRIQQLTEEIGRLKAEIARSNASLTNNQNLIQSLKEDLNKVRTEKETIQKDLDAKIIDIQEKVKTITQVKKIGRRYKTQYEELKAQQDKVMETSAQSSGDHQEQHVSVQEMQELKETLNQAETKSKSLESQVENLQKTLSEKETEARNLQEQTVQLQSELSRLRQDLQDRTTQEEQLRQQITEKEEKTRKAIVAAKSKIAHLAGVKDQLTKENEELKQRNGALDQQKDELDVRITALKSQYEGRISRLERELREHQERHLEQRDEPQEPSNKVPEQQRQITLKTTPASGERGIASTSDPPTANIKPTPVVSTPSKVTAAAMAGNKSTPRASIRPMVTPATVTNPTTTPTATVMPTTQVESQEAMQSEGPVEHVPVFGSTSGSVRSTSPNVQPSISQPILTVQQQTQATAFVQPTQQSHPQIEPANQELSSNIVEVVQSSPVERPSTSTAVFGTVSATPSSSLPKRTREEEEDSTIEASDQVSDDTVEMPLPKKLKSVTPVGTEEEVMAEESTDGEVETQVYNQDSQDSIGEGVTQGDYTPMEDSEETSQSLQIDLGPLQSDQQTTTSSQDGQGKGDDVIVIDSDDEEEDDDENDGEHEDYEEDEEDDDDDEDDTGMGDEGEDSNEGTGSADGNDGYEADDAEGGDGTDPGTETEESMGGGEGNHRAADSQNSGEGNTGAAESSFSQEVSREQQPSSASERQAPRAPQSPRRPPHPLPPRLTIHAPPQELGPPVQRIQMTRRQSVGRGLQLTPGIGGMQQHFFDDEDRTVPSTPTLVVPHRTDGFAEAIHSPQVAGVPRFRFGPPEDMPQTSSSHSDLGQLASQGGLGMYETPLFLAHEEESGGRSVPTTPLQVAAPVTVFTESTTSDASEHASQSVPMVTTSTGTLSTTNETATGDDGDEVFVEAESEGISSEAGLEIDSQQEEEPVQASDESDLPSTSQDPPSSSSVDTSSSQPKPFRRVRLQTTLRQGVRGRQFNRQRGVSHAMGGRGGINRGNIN

These are yes or no findings as the source states them, for the method shown. In cells and extracts the contact can be indirect. Here binding means that the protein was enriched with, or labelled near, the bait; the list need not be complete. For some of these results: A no says only that the protein was not detected with the bait.

Holding throughout (assay): affinity purification with mass spectrometry
Assay [1] has as its target flag-tagged RPC3 (POLR3C) (UniProt Q9BUI4).
In assay [2] the target is flag-tagged RPC7α (POLR3G) (UniProt O15318).
The target of assay [3] is flag-tagged RPC7β (POLR3GL) (UniProt Q9BT43).

As for NUP62 (from UniProt P37198 1-522), the binding entry in assay [1], in assay [2] and in assay [3] was “binds” each time.
As for “RPC7α (POLR3G), endogenous (from UniProt O15318 1-223)”, the binding entry is “binds” in assay [1] and “no binding” in assay [3].
Turning to “RPC7β (POLR3GL), endogenous (from UniProt Q9BT43 1-218)”, the binding entry is listed as “binds” in assay [1] and “no binding” in assay [2].
Take “TPR - a nuclear basket protein (from UniProt P12270 1-2363)”: the binding result in assay [1], in assay [2] and in assay [3] was “binds” throughout.

B1: NUP93 (protein, UniProt Q8N1F7 1-819)
chain: MDTEGFGELLQQAEQLAAETEGISELPHVERNLQEIQQAGERLRSRTLTRTSQETADVKASVLLGSRGLDISHISQRLESLSAATTFEPLEPVKDTDIQGFLKNEKDNALLSAIEESRKRTFGMAEEYHRESMLVEWEQVKQRILHTLLASGEDALDFTQESEPSYISDVGPPGRSSLDNIEMAYARQIYIYNEKIVNGHLQPNLVDLCASVAELDDKSISDMWTMVKQMTDVLLTPATDALKNRSSVEVRMEFVRQALAYLEQSYKNYTLVTVFGNLHQAQLGGVPGTYQLVRSFLNIKLPAPLPGLQDGEVEGHPVWALIYYCMRCGDLLAASQVVNRAQHQLGEFKTWFQEYMNSKDRRLSPATENKLRLHYRRALRNNTDPYKRAVYCIIGRCDVTDNQSEVADKTEDYLWLKLNQVCFDDDGTSSPQDRLTLSQFQKQLLEDYGESHFTVNQQPFLYFQVLFLTAQFEAAVAFLFRMERLRCHAVHVALVLFELKLLLKSSGQSAQLLSHEPGDPPCLRRLNFVRLLMLYTRKFESTDPREALQYFYFLRDEKDSQGENMFLRCVSELVIESREFDMILGKLENDGSRKPGVIDKFTSDTKPIINKVASVAENKGLFEEAAKLYDLAKNADKVLELMNKLLSPVVPQISAPQSNKERLKNMALSIAERYRAQGISANKFVDSTFYLLLDLITFFDEYHSGHIDRAFDIIERLKLVPLNQESVEERVAAFRNFSDEIRHNLSEVLLATMNILFTQFKRLKGTSPSSSSRPQRVIEDRDSQLRSQARTLITFAGMIPYRTSGDTNARLVQMEVLMN
With B1, the binding result in assay [1], in assay [2] and in assay [3] was “binds” in each case.
